System: Jurkat T cells
Experiment: RNA-seq of Jurkat T cells
Assay type: cell-based, human
Details: 10 μM
Description: RNA-seq and bioinformatics analysis. Jurkat T cells were grown to confluence in 100 mm plates in complete medium and incubated with 10 μM BT2 or vehicle for 4 h. Total RNA was extracted using the RNeasy Mini Kit (Qiagen, cat. no. 74004) with modification. Briefly, cells were washed twice with pre-cooled 1×PBS and TRIzol reagent (Thermo Fisher Scientific cat. no. 15596026) was added to lyse the cells. Chloroform was added to the mixture before microfuge centrifugation at 13000 rpm for 15 min at 4° C. The upper aqueous layer containing total RNA was transferred to fresh microtubes, and isopropanol was added and loaded into RNeasy columns. Columns were washed with buffers RW1 and RPE. Total RNA was eluted from the column using ribonuclease-free water. Samples were submitted to the UNSW Ramaciotti Centre for Genomics for TruSeq Stranded mRNA-seq preparation and sequencing by One NextSeq 500 1×75 bp high-output flow cell with data output up to 400 M reads. Quality control of samples was set at >80% higher than Q30 at 1×75 bp.
RNA-seq reads were first assessed for quality using the tool FastQC (v0.11.8) www.bioinformatics.babraham.ac.uk/projects/fastqc/). The tool Salmon was used for quantifying transcript abundance from RNA-seq reads (Patro et al., 2017). The R package DESeq2 that incorporates a method for differential analysis of count data was then used to identify differentially expressed genes across specific comparisons (Love et al., 2014). This package was also used to perform principal component analysis. […] The ggplot2 R package was used to prepare bar plots, scatter plots, and density plots. The pheatmap R package was used to generate distance matrices, and clustered heatmaps. DESeq2 output was used to generate a ranked list for input into GSEA Pre-ranked (v6.0.12, Broad Institute) (Subramanian et al., 2005) for pathway analysis against the Curated (Canonical Pathway), Gene Ontology, and Hallmarks gene collections from MSigDb (Liberzon et al., 2015; Liberzon et al., 2011). Ranked scores were calculated by multiplying the sign of the log 2 fold change by the log 10 transformed adjusted p value. […] All immune response related gene sets were selected for display.
To gain insights into BT2's mode of action we conducted next generation RNA sequencing (RNA-seq) with extracts of Jurkat T cells exposed to 10 μM BT2 for 4 h.

[1] = 4 h, adjusted p value <0.05, pool of 19071 gene IDs

## CCOC(=O)Nc1ccc2c(c1)C(=O)N(CC)c1ccccc1O2 [BT2, (10-ethyl-11-oxo-10,11-dihydro-dibenzo[b,f][1,4]oxazepin-2-yl)-carbamic acid ethyl ester]
4 h (Table 2)
  number of genes suppressed ≥2-fold: 14
4 h (Table 3)
  number of genes induced ≥2-fold: 30
[1]
  number of genes induced: 1320
  number of genes suppressed: 856

Reference: patent US20250352555A1, “METHOD OF INCREASING IMMUNE CELL ACTIVATION AND/OR TREATING CANCER USING DIBENZOXAZEPINONES” (VASCULAR THERAPEUTICS PTY LTD, priority 2022, published 2025)
